According to the supplement of paper PMC12819154, “High-throughput peptide-centric local stability assay extends protein–ligand identification to membrane proteins, tissues and bacteria” (Nature Structural & Molecular Biology, 2025):
The other results are listed elsewhere or left out. Most values lie at the level of the controls, where differences are scatter.

Amino acid sequences for entries named in this document (tags omitted). A change or cut given only in a name is not applied to a line headed by its entry.
UniProt P51795: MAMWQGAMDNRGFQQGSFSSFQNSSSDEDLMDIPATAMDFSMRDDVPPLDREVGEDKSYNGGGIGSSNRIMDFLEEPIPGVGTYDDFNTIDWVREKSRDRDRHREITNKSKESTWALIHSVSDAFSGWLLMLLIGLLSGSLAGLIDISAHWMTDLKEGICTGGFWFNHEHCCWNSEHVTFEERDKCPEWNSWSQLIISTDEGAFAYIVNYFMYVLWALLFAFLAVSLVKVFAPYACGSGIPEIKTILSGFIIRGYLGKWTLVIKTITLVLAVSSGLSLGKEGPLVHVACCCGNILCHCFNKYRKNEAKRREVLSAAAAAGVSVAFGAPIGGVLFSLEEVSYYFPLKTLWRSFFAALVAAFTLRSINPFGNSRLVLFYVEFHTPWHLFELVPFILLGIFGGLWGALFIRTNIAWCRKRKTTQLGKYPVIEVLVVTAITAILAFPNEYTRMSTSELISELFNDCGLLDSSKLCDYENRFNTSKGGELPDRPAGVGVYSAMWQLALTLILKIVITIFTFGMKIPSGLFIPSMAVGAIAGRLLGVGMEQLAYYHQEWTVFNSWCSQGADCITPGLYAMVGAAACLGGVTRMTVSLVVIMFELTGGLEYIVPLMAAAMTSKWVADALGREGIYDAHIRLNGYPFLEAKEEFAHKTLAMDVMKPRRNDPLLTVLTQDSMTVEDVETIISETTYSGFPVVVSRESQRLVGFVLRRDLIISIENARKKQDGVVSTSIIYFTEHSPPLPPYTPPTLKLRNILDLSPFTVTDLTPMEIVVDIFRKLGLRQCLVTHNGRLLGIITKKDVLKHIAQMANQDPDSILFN
UniProt P49674: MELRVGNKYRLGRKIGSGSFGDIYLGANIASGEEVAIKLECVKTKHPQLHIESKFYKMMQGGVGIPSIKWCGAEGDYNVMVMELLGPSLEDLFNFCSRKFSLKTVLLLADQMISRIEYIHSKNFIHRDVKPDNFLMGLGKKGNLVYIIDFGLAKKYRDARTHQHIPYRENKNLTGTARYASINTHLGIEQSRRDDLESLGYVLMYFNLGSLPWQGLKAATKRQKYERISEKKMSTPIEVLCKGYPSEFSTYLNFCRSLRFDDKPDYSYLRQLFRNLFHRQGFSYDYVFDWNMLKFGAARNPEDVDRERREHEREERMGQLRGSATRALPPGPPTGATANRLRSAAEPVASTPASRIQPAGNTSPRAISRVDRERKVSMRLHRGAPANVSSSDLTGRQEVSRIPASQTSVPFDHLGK
UniProt P47813, whole entry: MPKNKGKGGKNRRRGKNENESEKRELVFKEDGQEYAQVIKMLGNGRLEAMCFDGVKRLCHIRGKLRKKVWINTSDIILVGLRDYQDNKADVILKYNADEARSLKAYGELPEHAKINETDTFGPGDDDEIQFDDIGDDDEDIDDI
UniProt P50453: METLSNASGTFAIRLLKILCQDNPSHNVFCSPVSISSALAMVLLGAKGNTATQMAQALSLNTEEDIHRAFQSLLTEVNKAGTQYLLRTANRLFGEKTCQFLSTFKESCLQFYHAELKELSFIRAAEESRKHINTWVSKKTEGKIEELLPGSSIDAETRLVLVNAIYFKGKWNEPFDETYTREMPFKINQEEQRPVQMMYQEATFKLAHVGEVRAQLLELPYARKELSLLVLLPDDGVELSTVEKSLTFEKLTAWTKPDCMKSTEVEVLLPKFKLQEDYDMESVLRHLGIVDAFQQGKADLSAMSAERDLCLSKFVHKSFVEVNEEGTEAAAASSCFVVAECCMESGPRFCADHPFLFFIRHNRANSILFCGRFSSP
UniProt P49336: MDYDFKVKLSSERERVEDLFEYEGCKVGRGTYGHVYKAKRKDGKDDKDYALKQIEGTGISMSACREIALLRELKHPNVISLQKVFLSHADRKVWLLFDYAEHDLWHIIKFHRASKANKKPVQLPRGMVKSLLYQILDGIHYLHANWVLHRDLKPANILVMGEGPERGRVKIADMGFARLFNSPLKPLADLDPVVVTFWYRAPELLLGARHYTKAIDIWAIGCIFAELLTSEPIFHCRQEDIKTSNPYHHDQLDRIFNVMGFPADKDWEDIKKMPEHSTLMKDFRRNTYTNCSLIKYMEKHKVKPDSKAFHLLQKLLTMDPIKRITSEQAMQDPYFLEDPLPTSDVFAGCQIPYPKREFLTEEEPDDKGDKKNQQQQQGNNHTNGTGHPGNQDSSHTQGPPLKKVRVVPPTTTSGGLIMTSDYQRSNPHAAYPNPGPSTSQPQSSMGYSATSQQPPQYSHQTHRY
UniProt P54725: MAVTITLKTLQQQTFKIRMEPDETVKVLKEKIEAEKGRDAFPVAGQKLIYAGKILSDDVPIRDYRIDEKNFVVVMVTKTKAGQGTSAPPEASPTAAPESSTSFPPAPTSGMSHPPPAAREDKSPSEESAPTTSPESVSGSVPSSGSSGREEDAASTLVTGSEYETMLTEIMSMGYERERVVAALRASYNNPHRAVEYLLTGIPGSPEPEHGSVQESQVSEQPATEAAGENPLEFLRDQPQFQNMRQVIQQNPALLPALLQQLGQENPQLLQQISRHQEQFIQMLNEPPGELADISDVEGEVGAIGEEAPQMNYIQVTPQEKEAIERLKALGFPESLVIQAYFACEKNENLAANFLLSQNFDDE
UniProt P50479: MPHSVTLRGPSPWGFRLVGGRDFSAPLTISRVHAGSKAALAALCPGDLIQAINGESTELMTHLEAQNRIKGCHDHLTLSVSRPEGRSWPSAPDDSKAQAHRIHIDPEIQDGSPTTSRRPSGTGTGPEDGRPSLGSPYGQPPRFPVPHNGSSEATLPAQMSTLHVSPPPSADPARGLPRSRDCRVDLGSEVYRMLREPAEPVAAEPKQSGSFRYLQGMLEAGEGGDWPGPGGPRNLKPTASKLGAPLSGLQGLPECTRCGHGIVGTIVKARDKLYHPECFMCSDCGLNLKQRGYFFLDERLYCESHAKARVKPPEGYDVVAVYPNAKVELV
UniProt P48449: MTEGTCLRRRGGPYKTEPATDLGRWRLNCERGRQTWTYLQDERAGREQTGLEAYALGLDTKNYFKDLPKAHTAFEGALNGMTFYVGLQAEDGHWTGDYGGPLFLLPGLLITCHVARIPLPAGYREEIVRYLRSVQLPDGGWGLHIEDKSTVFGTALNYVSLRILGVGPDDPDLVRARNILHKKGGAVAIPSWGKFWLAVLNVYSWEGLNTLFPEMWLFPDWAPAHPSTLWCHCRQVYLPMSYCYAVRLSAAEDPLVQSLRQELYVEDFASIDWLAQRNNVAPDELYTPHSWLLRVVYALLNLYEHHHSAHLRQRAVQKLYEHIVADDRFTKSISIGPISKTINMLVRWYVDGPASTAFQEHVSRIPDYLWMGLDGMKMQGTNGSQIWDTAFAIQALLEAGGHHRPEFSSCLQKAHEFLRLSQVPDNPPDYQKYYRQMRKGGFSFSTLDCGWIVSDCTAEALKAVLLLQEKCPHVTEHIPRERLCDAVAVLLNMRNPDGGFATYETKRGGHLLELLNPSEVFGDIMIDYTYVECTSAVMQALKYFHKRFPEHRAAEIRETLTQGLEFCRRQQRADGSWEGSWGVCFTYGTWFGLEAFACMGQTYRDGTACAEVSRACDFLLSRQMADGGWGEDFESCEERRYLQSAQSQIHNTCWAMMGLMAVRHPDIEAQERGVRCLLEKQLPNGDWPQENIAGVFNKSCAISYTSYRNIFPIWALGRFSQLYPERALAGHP

compound: Cc1nc(Nc2ncc(C(=O)Nc3c(C)cccc3Cl)s2)cc(N2CCN(CCO)CC2)n1 [dasatinib]; experiment: log2 fold change of tryptic peptide abundance, ligand vs vehicle (limited proteolysis) (log2 ratio); higher = more trypsin-susceptible (destabilized); conditions: ligand concentration: 5 uM; sample: K562 cleared lysate

Target | log2 fold change
CLCN5 (peptide sequence: SYNGGGIGSSNR, peptide start residue: 58) (UniProt P51795) | 0.187
RPL34 (peptide sequence: RAFLIEEQKIVVK, peptide start residue: 93) (UniProt P49207) | -0.473
UniProt P49674 (peptide sequence: HPQLHIESK, peptide start residue: 46) | -0.748
UniProt P47813 (peptide sequence: MLGNGRLEAMCFDGVKR, peptide start residue: 41) | -0.053
SERPINB9 (peptide sequence: ADLSAMSAER, peptide start residue: 298) (UniProt P50453) | 0.292
CDK8 (peptide sequence: NTYTNCSLIK, peptide start residue: 286) (UniProt P49336) | 0.19
RAD23A (peptide sequence: ILSDDVPIRDYR, peptide start residue: 54) (UniProt P54725) | -0.163
PDLIM4 (peptide sequence: GYFFLDER, peptide start residue: 292) (UniProt P50479) | -0.746
LSS (peptide sequence: WYVDGPASTAFQEHVSR, peptide start residue: 348) (UniProt P48449) | 0.0832

A second format for some results above:
Target,log2 fold change
"RPL34 (peptide sequence: RAFLIEEQKIVVK, peptide start residue: 93) (UniProt P49207)",-0.473
"UniProt P47813 (peptide sequence: MLGNGRLEAMCFDGVKR, peptide start residue: 41)",-0.053
